Where “and” joins values, the source holds several entries; their conditions need not be identical. Equal values may be shown once. The campaign covered roughly 410,000 compounds. About 18,000 (4.4%) were called active. The shares of active, inactive and inconclusive entries below differ from those in the screen. Rule as the data show it: active = activity change below about -60%; inconclusive = no clear call, values can overlap the other calls; inactive = above about -39%.
Test: qHTS Assay for inhibitors of the human cytomegalovirus (HCMV)
Details: HFF cells, HCMV-luciferase reporter, 72 h; at 57.5 µM; active compounds read low
Method in brief: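 Two compound doses tested in HFFs infected with HCMV-luciferase, MOI 1 PFU/cell, 72 h at 37C. Lysate luminescence read with OneGlo; data normalized against buffer-only and 10uM Salinomycin inhibitor controls.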
% is scaled to controls: 0 for no effect and ±100 for the full control effect.

SMILES	activity change, negative = inhibition
CCC(C)c1ccccc1N1CC(C(=O)Nc2ccc(N3CCOCC3)cc2)CC1=O (stereo not given)	inactive: -18.6%
COc1ccc(CCN(C)CCCN2CC(c3ccccc3)CC2=O)cc1OC (stereo not given)	inconclusive: -55%
COc1ccc(-c2cnnc(N/N=C/c3ccc(OC)c(OC)c3)n2)cc1	inconclusive: -45.5%
CC(=O)Nc1cc(-c2cccc(F)c2)cn2c(-c3ccc(F)cc3)cnc12	inconclusive: -52.4%
O=C(CNC1CCCCC1)NN=C(c1ccccc1)c1ccccc1	inconclusive: -52.8%
CCOC(=O)c1c(CSc2ccc(CC)cc2)oc2ccc(O)c(CN(C)C)c12	active: -81.9%
COc1ccccc1N(CC(=O)Nc1ccccc1C(=O)NCC(C)C)S(C)(=O)=O	inconclusive: -52.7%
Cc1ccc(S(=O)(=O)N(CC(=O)NCc2ccncc2)Cc2ccc(F)cc2)cc1	inconclusive: -44.5%
Cc1cc(C(=O)N/N=C2\CC(=O)c3ccccc32)c(C)n1-c1ccccc1	inactive: 60.2%
O=C(CCCCCn1c(=S)[nH]c2cc3c(cc2c1=O)OCO3)NCCc1ccccc1	inactive: 60.9%
Cn1c(SCc2cccc(F)c2)nnc1-c1ccncc1	inconclusive: -42.1%
CCN(CC)c1ccc(C(=O)Nc2ccc3nc(N(CC)CC)cc(C)c3c2)cc1	active: -67.2%
O=C(CN1CCN(c2ccccn2)CC1)Nc1ccccc1C(=O)Nc1ccccc1	inconclusive: -47.6%
c1ccc(CCNCc2cccnc2)cc1	inconclusive: -53.5%
COc1cccc(C(=O)NCC2(c3ccccc3)CCCC2)c1OC	inconclusive: -51.1%
CN(CCO)c1ccc(/C=N/Nc2nncc3ccccc23)cc1	inconclusive: -54.5%
CCc1c(C(=O)Nc2ccncc2)csc1C	active: -99.8%
CC1CN(CC(O)COC(c2ccc(Cl)cc2)c2ccc(Cl)cc2)CC(C)O1 (stereo not given)	inactive: 53%
COC(=O)CN(c1cc([N+](=O)[O-])ccc1OC)S(C)(=O)=O	inactive: -13%
O=C(CSc1nc2c([nH]c3ccccc32)c(=O)n1-c1cccc(Cl)c1)NCc1ccccc1	inconclusive: -46.5%
COc1ccc(/C=N/Nc2nc(Nc3ccccc3)nc(N3CCCCC3)n2)c(OC)c1	inconclusive: -51.2%
CN1CCN(Cc2coc3c(Cl)cc(Cl)cc3c2=O)CC1	inactive: 15.4%
CCOc1ccccc1N(CC(=O)Nc1ccc(OC)cc1)S(=O)(=O)c1ccccc1	inconclusive: -54%
COc1ccc(OC)c(NC(=O)C2CC(/C=C/c3ccccc3)=NO2)c1 (stereo not given)	inconclusive: -54.5%
COc1ccc(NC(=O)COC(=O)c2ccc(OCc3ccc(Cl)cc3Cl)c(OC)c2)c(OC)c1	inconclusive: -51.9%
CC(C)(C)Cc1c(-c2ccco2)nc2ccc(Cl)cn12	inactive: 21.7%
COc1ccc(CNC(=O)C2CC(c3cc(C(F)(F)F)cc(C(F)(F)F)c3)=NO2)cc1 (stereo not given)	inactive: 4.25%
O=C(N/N=C/c1ccccc1)c1c(O)c2ccccc2[nH]c1=O	active: -91.6%

Reformatted bar-delimited: entries from further up
SMILES | activity change, negative = inhibition
COc1ccc(CCN(C)CCCN2CC(c3ccccc3)CC2=O)cc1OC (stereo not given) | inconclusive: -55%
O=C(CNC1CCCCC1)NN=C(c1ccccc1)c1ccccc1 | inconclusive: -52.8%
CCOC(=O)c1c(CSc2ccc(CC)cc2)oc2ccc(O)c(CN(C)C)c12 | active: -81.9%
Cc1ccc(S(=O)(=O)N(CC(=O)NCc2ccncc2)Cc2ccc(F)cc2)cc1 | inconclusive: -44.5%
O=C(CCCCCn1c(=S)[nH]c2cc3c(cc2c1=O)OCO3)NCCc1ccccc1 | inactive: 60.9%
O=C(CN1CCN(c2ccccn2)CC1)Nc1ccccc1C(=O)Nc1ccccc1 | inconclusive: -47.6%
c1ccc(CCNCc2cccnc2)cc1 | inconclusive: -53.5%
COc1cccc(C(=O)NCC2(c3ccccc3)CCCC2)c1OC | inconclusive: -51.1%
CCc1c(C(=O)Nc2ccncc2)csc1C | active: -99.8%
COC(=O)CN(c1cc([N+](=O)[O-])ccc1OC)S(C)(=O)=O | inactive: -13%
COc1ccc(/C=N/Nc2nc(Nc3ccccc3)nc(N3CCCCC3)n2)c(OC)c1 | inconclusive: -51.2%
CN1CCN(Cc2coc3c(Cl)cc(Cl)cc3c2=O)CC1 | inactive: 15.4%
CCOc1ccccc1N(CC(=O)Nc1ccc(OC)cc1)S(=O)(=O)c1ccccc1 | inconclusive: -54%
COc1ccc(NC(=O)COC(=O)c2ccc(OCc3ccc(Cl)cc3Cl)c(OC)c2)c(OC)c1 | inconclusive: -51.9%

Next compounds:

SMILES	activity change, negative = inhibition
O=C(C[n+]1cc(-c2ccc(Br)cc2)n2c1CCCCC2)c1ccccc1	inconclusive: -46.5%
CCN(CC)C(=O)c1ccc(-c2cccs2)s1	inconclusive: -49.1%
COc1ccc(/C(N)=N/OC(=O)c2ccco2)cc1	inactive: 79.1%
CCN1CCN(C(=O)c2ccc3c(c2)N(Cc2ccccc2)C(=O)c2ccccc2S3(=O)=O)CC1	inactive: -8.54% and inactive: 7.85%
Cc1c(NS(=O)(=O)c2cc(NC(=O)CCN3CCCC(C)C3)ccc2Cl)c(=O)n(-c2ccccc2)n1C (stereo not given)	inconclusive: -42.9%
O=C1CCCC(O)=C1N=Nc1cccc(S(=O)(=O)N2CCOCC2)c1	inconclusive: -46.5%
C[C@H]1CN=C(N(C)C)N1CC1CCC(C(C)(C)C)CC1 (stereo not given in full)	inactive: -9.94%
c1ccc2c(NCC3CCCO3)nc(N3CCCCC3)nc2c1 (stereo not given)	inconclusive: -46.1%
CC(OC(=O)Cn1[nH]c(=O)c2ccccc2c1=O)C(=O)NC1(C#N)CCCCC1 (stereo not given)	inactive: -12.4%
CCC1CCCCN1CCN1C(=O)C2C(C(=O)Nc3ccc(OC)cc3)C3C=CC2(O3)C1C(=O)NC1CCCCC1 (stereo not given)	inconclusive: -40.7%
O=C(CCN1CCCCC1)Nc1ccccc1	inconclusive: -44.3%
Cc1cccc(N2C(=O)NC(=O)/C(=C\c3ccc(N4CCOCC4)cc3)C2=O)c1	inconclusive: -45.3%
CC1CN(S(=O)(=O)c2ccc(C(=O)N3CCc4ccccc43)cc2)CC(C)O1 (stereo not given)	inconclusive: -52.8%
Cc1cnc(CNC(=O)c2ccc3nc([C@@H]4O[C@H](CO)[C@H](O)[C@H](O)[C@H]4O)[nH]c3c2)cn1	inconclusive: -41.5%
Cc1ccc(C(C)C)c(OCc2ccc(C(=O)N/N=C/c3ccc(O)c(O)c3)cc2)c1	inconclusive: -55.3%
Fc1ccc(CNC(=S)Nc2ccc(OC(F)F)cc2)cc1	inconclusive: -55.3%
O=C(NC1CCCCC1)C(c1cccnc1)N(C(=O)CCl)c1ccc(F)cc1 (stereo not given)	active: -99.1%
CCCCN=Cc1c(C)[nH]n(-c2ccccc2)c1=S	inconclusive: -57.3%
COCCOC(=O)C1=C(C)N(Cc2ccccc2)C(=O)NC1c1ccc(OC)cc1 (stereo not given)	inconclusive: -51%
CCc1nc2ccc(C(=O)NCCc3ccccn3)cn2c1N(C)Cc1cccs1	inconclusive: -41.6%
COc1cc(C2=NOC(C(=O)NCc3ccc(F)cc3)C2)cc(OC)c1OC (stereo not given)	active: -83.8%
CSCCC(NC(=O)c1ccco1)C(=O)NCC1CCCO1 (stereo not given)	inconclusive: 0%
O=C(NCCc1ccccc1)[C@@H]1CC=C[C@@H]2CCN(Cc3ccccc3)C(=O)[C@@H]21	inactive: 28.3%
Cc1cccc(CSc2ncnc3ccccc23)c1	inactive: -14.7%
CCC(C(=O)NCc1cccs1)n1nc(C)n2c(cc3occc32)c1=O (stereo not given)	inconclusive: -58.7%
Nc1c(C(=O)NCc2ccco2)c2nc3ccccc3nc2n1CCN1CCCCC1	active: -68%
NC(=O)c1ccc(SCC(=O)OCC(=O)NCc2cccs2)c([N+](=O)[O-])c1	inactive: -19.9%

From PubChem BioAssay AID1259415 (National Center for Advancing Translational Sciences (NCATS), 2018)
